Experimental data published in PMC10710507 (Nature Communications, 2023).
Where “and” joins values, the source holds several entries; their conditions need not be identical. Equal entries are not always repeated.

Columns and labels:
Assay type in all cases: binding, rat
G50tfmF-enNTS1-R213 = test: Receptor-observed 19F NMR, G50tfmF-enNTS1-R213
enNTS1 [1] = test: Hydrogen-deuterium exchange mass spectrometry; conditions: 20 °C; for Relative deuterium uptake, FDFYHYF (TM7) / Relative deuterium uptake, FTMGLQNL (ECL2) / Relative deuterium uptake, PVDVYN (TM2; printed PVDYN in NT8-13 table) / Relative deuterium uptake, DVNTDIYSKV (TM1): enNTS1 + ligand, mean, n = 4 (NT8-13) or 3 (SR142948A)
G50tfmF-enNTS1-P51A-R213 = test: Receptor-observed 19F NMR, G50tfmF-enNTS1-P51A-R213; conditions: G50tfmF-enNTS1-P51A-R213, ligand bound, 298 K, spectral deconvolution
G50tfmF-enNTS1 = test: Receptor-observed 19F NMR, G50tfmF-enNTS1
enNTS1 [2] = test: Ligand-observed 19F NMR / 19F STD, enNTS1 complex; conditions: 298 K
[3] = G50tfmF-enNTS1-R213, ligand bound, 298 K, spectral deconvolution
[4] = 0.1 min, no back-exchange correction
[5] = G50tfmF-enNTS1, ligand bound, 298 K, spectral deconvolution

Molecule | population of P2 (G50tfmF-enNTS1-R213; [3]) [%] | population of P3 (G50tfmF-enNTS1-R213; [3]) [%] | Relative deuterium uptake, FDFYHYF (TM7) (enNTS1 [1]; 0.1 min) [Da] | Relative deuterium uptake, FTMGLQNL (ECL2) (enNTS1 [1]; 0.1 min) [Da] | Relative deuterium uptake, DVNTDIYSKV (TM1) (enNTS1 [1]; [4]) [Da] | Relative deuterium uptake, DVNTDIYSKV (TM1) (enNTS1 [1]; 1 min) [Da] | Relative deuterium uptake, FDFYHYF (TM7) (enNTS1 [1]; 1 min) [Da] | Relative deuterium uptake, FTMGLQNL (ECL2) (enNTS1 [1]; 1 min) [Da] | Relative deuterium uptake, DVNTDIYSKV (TM1) (enNTS1 [1]; 10 min) [Da] | Relative deuterium uptake, FDFYHYF (TM7) (enNTS1 [1]; 10 min) [Da] | Relative deuterium uptake, FTMGLQNL (ECL2) (enNTS1 [1]; 10 min) [Da] | Relative deuterium uptake, DVNTDIYSKV (TM1) (enNTS1 [1]; 100 min) [Da] | Relative deuterium uptake, FDFYHYF (TM7) (enNTS1 [1]; 100 min) [Da] | Relative deuterium uptake, FTMGLQNL (ECL2) (enNTS1 [1]; 100 min) [Da] | signal splitting / conformational heterogeneity in complex with enNTS1 (enNTS1 [2]; 19F NMR) | other results
COc1cccc(OC)c1-c1cc(C(=O)NC2(C(=O)O)C3CC4CC(C3)CC2C4)nn1-c1ccc(C(=O)N(C)CCCN(C)C)cc1C(C)C (centres unmarked) [SR142948A] | 49 | 21.7 | -0.1975 | 1.081 | 4.064 | 4.291 | 0.1096 | 1.126 | 5.3117 | 0.3061 | 1.585 | 5.214 | 0.7404 | 2.166 | – | formation of substate P4 (G50tfmF-enNTS1-R213; G50tfmF-enNTS1-R213, 19F NMR): no evidence of formation of the substate P4; population of P1 (G50tfmF-enNTS1-R213; [3]): 29.3%; Relative deuterium uptake, PVDVYN (TM2; printed PVDYN in NT8-13 table) (enNTS1 [1]; 0.1 min): 0.0863 Da; Relative deuterium uptake, PVDVYN (TM2; printed PVDYN in NT8-13 table) (enNTS1 [1]; 1 min): 0.06178 Da; Relative deuterium uptake, PVDVYN (TM2; printed PVDYN in NT8-13 table) (enNTS1 [1]; 10 min): 0.08314 Da; Relative deuterium uptake, PVDVYN (TM2; printed PVDYN in NT8-13 table) (enNTS1 [1]; 100 min): 0.3304 Da; deuterium uptake change, first residues of TM1 (DVNTDIYSKV) (enNTS1 [1]; enNTS1 apo vs ligand bound): absence of such protection; protection from deuterium exchange, extracellular end of TM2 (enNTS1 [1]; enNTS1 apo vs ligand bound): increase in protection from deuterium exchange; protection from deuterium exchange, extracellular end of TM7 (enNTS1 [1]; enNTS1 apo vs ligand bound): increase in protection from deuterium exchange; protection from deuterium exchange, peptides from ECL2 (enNTS1 [1]; enNTS1 apo vs ligand bound): increase in protection in either ligand bound state
NT8-13: last six residues of NT | 9.3 | 1.3 | -0.1264 | 0.5871 | 2.294 | 2.382 | -0.1354 | 0.5887 | 2.712 | -0.1142 | 0.7752 | 3.919 | 0.2797 | 1.448 | – | population of P3 (G50tfmF-enNTS1-P51A-R213): 23%; population of P4 (G50tfmF-enNTS1-P51A-R213): 77%; population of P4 (G50tfmF-enNTS1-R213; [3]): 89.4% and ~ 90%; P1 in ligand bound state (G50tfmF-enNTS1; G50tfmF-enNTS1, 19F NMR, saturating ligand): P1 disappears; population of P3 (G50tfmF-enNTS1; [5]): 10%; population of P4 (G50tfmF-enNTS1; [5]): 90% and ~ 90%; P2 in ligand bound state (G50tfmF-enNTS1; G50tfmF-enNTS1, saturating NT8-13 (10-fold excess)): absent
P10A-Y11tfmF-NT8-13: Mutation of Pro10 to alanine in Y11tfmF-NT8-13 (RRAFIL; para-trifluoromethyl-phenylalanine (tfmF) at position 11) | – | – | – | – | – | – | – | – | – | – | – | – | – | – | preserves the conformational heterogeneity | –
Y11tfmF-NT8-13: truncated version of 19F-NT (RRPFIL; para-trifluoromethyl-phenylalanine (tfmF) at position 11) | – | – | – | – | – | – | – | – | – | – | – | – | – | – | Such signal splitting can be observed | population of S1 conformer (enNTS1 [2]; 19F NMR, enNTS1 complex): ~ 25%
Y11tfmF-NT: fluorinated analogue of NT, Tyr11 substituted with para-trifluoromethyl-phenylalanine (ELYENKPRRPFIL; para-trifluoromethyl-phenylalanine (tfmF) at position 11; pyroglutamate (pE) at position 1 as in NT) | – | – | – | – | – | – | – | – | – | – | – | – | – | – | two distinct resonances were observed | population of additional upfield bound state (19F NMR) (enNTS1 [2]; enNTS1 complex, 50 mM potassium phosphate pH 7.4, 0.05% DDM): ~ 25%
